Data reported in US20250171459A1, “2-METHYL-4',5'-DIHYDROSPIRO[PIPERIDINE-4,7'-THIENO[2,3-C]PYRAN] DERIVATIVES AS INHIBITORS OF APOL1 AND METHODS OF USING SAME” (Vertex Pharmaceuticals Incorporated, priority 2022, published 2025).

The chains behind the UniProt entries cited, without tags or fusion partners.
UniProt O14791, whole entry S342G/I384M: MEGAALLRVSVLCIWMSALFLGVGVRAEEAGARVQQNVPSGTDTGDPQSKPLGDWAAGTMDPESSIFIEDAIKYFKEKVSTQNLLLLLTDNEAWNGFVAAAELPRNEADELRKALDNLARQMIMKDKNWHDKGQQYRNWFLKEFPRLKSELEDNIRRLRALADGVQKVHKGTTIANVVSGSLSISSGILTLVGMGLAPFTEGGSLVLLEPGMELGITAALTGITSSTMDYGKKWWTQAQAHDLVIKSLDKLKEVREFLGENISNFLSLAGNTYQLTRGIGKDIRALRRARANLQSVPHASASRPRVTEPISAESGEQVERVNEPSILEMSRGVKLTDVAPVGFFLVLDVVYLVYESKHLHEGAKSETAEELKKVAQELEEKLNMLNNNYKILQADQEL

molecular target: APOL1 (Homo sapiens, UniProt O14791); assay: MultiTox-Fluor Multiplex Cytotoxicity Assay in tet-inducible APOL1 T-REx-HEK293 cells (cell rescue, ratio of dead to live cells); conditions: read-out: IP50 (i.e., IC50 for cell proliferation); tet-inducible transgenic APOL1 T-REx-HEK293 cell lines, 50 ng/mL tet, 24 hours

SMILES	IC50
CCC1Cc2sc(Cl)cc2C2(CCN(Cc3cnn(C)c3)[C@@H](C)C2)O1 (stereo partly shown) [Compound 533]	100 to 500 nM
CCc1ncc(CN2CC[C@]3(C[C@@H]2C)OC[C@H](O)c2cc(Cl)sc23)cn1	100 to 500 nM
C[C@H]1C[C@@]2(CCN1Cc1ccc(O)nc1)OCCc1c2sc(Cl)c1CO	< 100 nM
COc1cnc(CN2CC[C@]3(C[C@@H]2C)OCCc2cc(Cl)sc23)cn1	100 to 500 nM
C[C@H]1C[C@@]2(CCN1Cc1ccc(OCC(=O)N3CCOCC3)cc1)OCCc1c2sc(Cl)c1CO	< 100 nM
C[C@H]1C[C@@]2(CCN1Cc1ccc(S(C)(=O)=O)cc1)OCCc1c2sc(Cl)c1CO	100 to 500 nM
Cc1cc2c(s1)[C@]1(CCN(Cc3cnn(CCS(C)(=O)=O)c3)[C@H](C)C1)OCC2	100 to 500 nM
CCc1cc2c(s1)CCOC21CCN(Cc2ccc(NS(=O)(=O)CCCOC)cc2)CC1	100 to 500 nM
CCc1cc2c(s1)CCO[C@@]21CCN(Cc2cn(C(C)c3nncn3CCCOC)nn2)[C@@H](C)C1 (stereo partly shown)	100 to 500 nM
CNS(=O)(=O)CCn1cc(CN2CCC3(CC2)OCC(C)c2sc(Cl)cc23)cn1 (stereo not shown)	100 to 500 nM

The structures given here were assigned with low confidence; some may be wrong.
